Data reported in paper PMC5988312.
These are yes or no findings as the source states them, for the method shown. Binding seen in cells or lysates may run through a third protein. Some entries that bind do so weakly or less than the wild type.

Protein sequences, listed by entry. Tags and fused reporters are not part of them.
UniProt P04608: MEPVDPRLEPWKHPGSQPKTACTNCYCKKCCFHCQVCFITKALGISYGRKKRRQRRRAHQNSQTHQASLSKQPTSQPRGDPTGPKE

Biological target: HA-Tat (HIV-1 Tat, HA-tagged) (HIV-1) (UniProt P04608)
Assay: co-IP; co-immunoprecipitation with HA-Tat, immunoblot for SQSTM1/p62

SQSTM1/p62 (from UniProt Q13501 1-440)
binding: binds
